Test results: PubChem BioAssay AID540256 (National Center for Advancing Translational Sciences (NCATS), 2011)
Several values for one entry are separate records, joined by “and”; a condition that tells them apart may be missing. Equal entries are not always repeated. Screen size: about 300,000 compounds; about 3,700 (1.2%) were called active. The shares of active, inactive and inconclusive entries below differ from those in the screen. Calls follow the shape of the full dose curve; tested in HEK293 cells. Where the call is inconclusive, the potency comes from a doubtful curve fit.

Experiment: qHTS for Inhibitors of binding or entry into cells for Lassa Virus; also: nearly all actives have a fitted effect of over 50% in size
Details: Lassa virus pseudotype entry inhibition, cell reporter; activity change, negative = inhibition: at 37.9 µM (top of the series) unless noted
% is scaled to controls: 0 for no effect and ±100 for the full control effect; potency is read from the fitted curve at half-maximal effect.

| Compound | Potency | activity change, negative = inhibition |
| --- | --- | --- |
| COc1ccc2c(-c3ccccc3)cc(SCC(=O)N(C)C3CCS(=O)(=O)C3)nc2c1 (configuration not stated) | inconclusive: 25.9 µM [inhibitor, single point] | – |
| Fc1cccc2sc(Nc3nc4ccccc4s3)nc12 | inconclusive: 2.06 µM [activator, full curve] | – |
| Cn1c(-c2ccccc2)cnc1SCC(=O)N1CCCCC1 | active: 3.55 µM | – |
| COCCOC(=O)c1[nH]c2c(c1C)C(=O)CC(c1cc(OC)c(OC)c(OC)c1)C2 (configuration not stated) | inconclusive: 14.1 µM [inhibitor, partial curve, poor fit] | – |
| CC1(c2ccccc2)CC(C)(C)N(C(=O)c2ccccc2Cl)c2ccccc21 (configuration not stated) | – | inactive: -0.842% [at 46.1 µM] |
| COC(=O)c1ccc(COc2ccccc2/C=N/NC(=O)c2cccnc2)cc1 | – | inactive: -24.4% [at 46.1 µM] |
| CCN(C(=O)c1cc2c(Cl)nc3ccc(C)cc3c2s1)c1cc(OC)ccc1OC | inconclusive: 11.2 µM [inhibitor, single point] | – |
| Cc1cc(NC(=O)c2ccc(F)cc2)ccc1NC(=O)c1ccco1 | inconclusive: 35.5 µM [inhibitor, single point] | – |
| CC1CCc2cc(F)ccc2N1C(=O)CSc1nnc2c(n1)[nH]c1ccc(F)cc12 (configuration not stated) | inconclusive: 10.3 µM [inhibitor, partial curve, poor fit] | – |
| Cc1oncc1C(=O)Nc1ccc(C(F)(F)F)cc1 | inconclusive: 14.6 µM [inhibitor, partial curve, poor fit] and inconclusive: 517 nM [activator, full curve, poor fit] | – |
| COc1ccc(NC(=O)c2ccc(NC(=O)c3cccs3)cc2)cc1 | inconclusive: 2 µM [activator, partial curve, poor fit] | – |
| O=C(Oc1c(-c2ccccc2Cl)oc2ccccc2c1=O)c1ccc(Cl)cc1 | inconclusive: 25.1 µM [inhibitor, single point] | – |
| N#Cc1nc(Cc2ccccc2)oc1NCCc1ccccc1 | inconclusive: 35.5 µM [inhibitor, single point] | – |
| O=C1CCCCC1CCc1ccncc1 (configuration not stated) | – | inactive: 24.9% |
| Cc1ccc(S(=O)(=O)N2CCN(C(=O)CC(C)C)CC2)cc1 | inconclusive: 11.2 µM [inhibitor, single point] | – |
| COc1cc(C2CC(=O)Nc3cc4c(cc32)OCCO4)cc(OC)c1O (configuration not stated) | – | inactive: -26.5% [at 46.1 µM] |
| Cc1ccc(-c2n[nH]c(=S)n2/N=C/c2c(C)nn(-c3ccccc3)c2C)cc1 | inconclusive: 0.259 µM [inhibitor, full curve] | – |
| O=C(Nc1cccc2ccccc12)/C(Cl)=C/c1ccccc1 | – | inactive: 1% |
| O=C(OCC(=O)N1CCN(C(=O)c2ccco2)CC1)c1ccccc1NCCO | inconclusive: 0.501 µM [inhibitor, single point] | – |
| O=C(O)CCn1cc(/C=C2\NC(=S)N(c3ccccc3)C2=O)c(-c2ccc(Br)cc2)n1 | – | inactive: 4.71% |
| O=C(Nc1ccccn1)c1ccc2ccccc2c1O | inconclusive: 1.26 µM [activator, full curve, poor fit] | – |

| Compound | Potency | activity change, negative = inhibition |
| --- | --- | --- |
| CCCC/C(O)=C1\C(=O)CCCC1=NCCc1c(C)[nH]c2ccc(OC)cc12 | inconclusive: 35.5 µM [inhibitor, partial curve, poor fit] | – |
| Cc1cccc(C(=O)Nc2ccc(S(=O)(=O)N(Cc3ccccc3)c3ccccc3)cc2)c1 | inconclusive: 35.5 µM [inhibitor, single point] | – |
| C=C1c2cc3c(cc2NC(=S)N1Cc1ccccc1)OCO3 | inconclusive: 35.5 µM [inhibitor, partial curve, poor fit] | – |
| CN(Cc1cccc(F)c1)C(=O)c1ccc2c(=O)n3c(nc2c1)CCC3 | – | inactive: 6.29% [at 46.1 µM] |
| O=C(Nc1nnc(SCC(=O)N2CCCc3ccccc32)s1)c1ccccc1 | inconclusive: 1.58 µM [inhibitor, full curve] | – |
| Cc1ccc(S(=O)(=O)N2CCN(CCNC(=O)C(=O)NCc3ccccc3)CC2)cc1 | – | inactive: -0.109% [at 46.1 µM] |
| Cn1c(N)c(C(=O)NCc2ccccc2Cl)sc1=S | – | inactive: 4.68% |
| CN(CCCC1CCCC1)C(=O)CC1C(=O)NCCN1Cc1cccc(F)c1F (configuration not stated) | – | inactive: 2.94% |
| Cc1cc(NC(=O)NC(=O)c2ccccc2NC(=O)CN(C)C)ccc1Oc1ncc(Br)cn1 | inconclusive: 4.47 µM [inhibitor, full curve, poor fit] | – |
| Cc1cc(C)c(S(=O)(=O)Nc2ccc(-c3ccc(N4CCCCCC4)nn3)cc2)cc1C | inconclusive: 35.5 µM [inhibitor, single point] | – |
| O=C(Nc1cccc(Cl)c1)Nc1ccc2c(c1)OCO2 | inconclusive: 16.4 µM [inhibitor, single point] | – |
| COc1ccc(CN/C(C)=C(/C#N)C(N)=O)cc1OC | inconclusive: 8.2 µM [activator, partial curve] | – |
| COc1ccc(C(=O)NCCn2cc(SC(C)c3ccccc3)c3ccccc32)cc1OC (configuration not stated) | inconclusive: 10 µM [inhibitor, partial curve, poor fit] | – |
| CC(C)c1ccc(Nc2nc(NCc3ccco3)nc(N3CCOCC3)n2)cc1 | inconclusive: 11.2 µM [inhibitor, partial curve] | – |
| CC(C)Cn1c(N)c(C(=O)COC(=O)/C=C/c2ccccc2)c(=O)n(C)c1=O | inconclusive: 22.4 µM [inhibitor, single point] | – |
| CCN(CC)C(=O)CC1(c2ccccc2OC)CCOC(C(C)C)C1 (configuration not stated) | inconclusive: 2.31 µM [inhibitor, full curve] | – |
| O=S(=O)(Nc1ccc(F)cc1F)c1ccc(-n2cccn2)cc1 | – | inactive: 14.4% [at 46.1 µM] |
| COC(=O)c1[nH]c2ccc(F)cc2c1NS(=O)(=O)c1ccc(OC)cc1 | inconclusive: 2.06 µM [inhibitor, full curve] | – |
| COCCn1c(SCC(=O)c2c[nH]c3ccccc23)nc2cc(C(=O)NC(C)C)ccc2c1=O | inconclusive: 10 µM [inhibitor, partial curve, poor fit] | – |
| COC(=O)c1cc(S(=O)(=O)N2CCOCC2)ccc1Sc1ccccc1N | inconclusive: 4.11 µM [inhibitor, full curve, poor fit] | – |
| COCCCNC(=O)c1ccc(C)c(-n2c(C)nc3cccnc32)c1 | – | inactive: 7.19% [at 46.1 µM] |

A draw from above in order of count of non-hydrogen atoms, rising:

| Compound | Potency | activity change, negative = inhibition |
| --- | --- | --- |
| CCN(CC)C(=O)CC1(c2ccccc2OC)CCOC(C(C)C)C1 (configuration not stated) | inconclusive: 2.31 µM [inhibitor, full curve] | – |
| COC(=O)c1[nH]c2ccc(F)cc2c1NS(=O)(=O)c1ccc(OC)cc1 | inconclusive: 2.06 µM [inhibitor, full curve] | – |
| CC(C)Cn1c(N)c(C(=O)COC(=O)/C=C/c2ccccc2)c(=O)n(C)c1=O | inconclusive: 22.4 µM [inhibitor, single point] | – |
| COCCn1c(SCC(=O)c2c[nH]c3ccccc23)nc2cc(C(=O)NC(C)C)ccc2c1=O | inconclusive: 10 µM [inhibitor, partial curve, poor fit] | – |
